From patent US20040235922A1, “Compositions and methods for inducing adipose tissue cell death” (priority 2003, published 2004)
Structures can show the parent of a compound that is named as a salt.

Experiment: 21 day oral (diet) treatment of mice: body weight, food intake, feed efficiency, body temperature, body composition by PIXImus densitometry (Example 1)
Assay type: in vivo
Settings: 21 days, ICR mice
Description: The effects of clenbuterol, a β2-AR agonist, and ractopamine, a β1/β2-AR agonist, on growth, adiposity and adipose tissue apoptosis in male and female mice have been tested by feeding diets containing control, 200 ppm clenbuterol, or 200 or 800 ppm ractopamine. Food intake (FI) was measured daily; body weight (BW) and temperatures (BT) were measured on days 0, 3, 7, 10, 14, 17, and 20. On day 21 mice were sacrificed, body composition was determined using PIXImus densitometry, and muscle and adipose tissues were collected. There were no treatment effects on BT, FI, BW, feed efficiency or body composition. Retroperitoneal (Rp) and epididymal/parametrial (Epi/Par) fat pad masses were reduced in both 800 ppm ractopamine (40±3 and 207±20 mg, respectively) and clenbuterol (35±7 and 211±22 mg) treated mice compared to control (66±8 and 319±30 mg, p<0.05). Brown adipose tissue (BAT) mass was greater (p<0.05) in clenbuterol treated mice compared to other treatments. Adipose tissue apoptosis (% DNA fragmentation) was increased in Epi/Par fat pads in clenbuterol (5.2+1.1%) and 800 ppm ractopamine (4.1±0.8%) treated mice compared to control (1.7+0.4%, p<0.05).
Animals: Five week old male (n=20) and female (n=20) ICR mice (Harlan Research Laboratories, Indianapolis, Ind.) were allowed to acclimate for one week prior to the experiment start date. Animals were housed singly in suspended wire cages and were provided ground rodent chow (ProLab® RMH 2500; Purina Mills, St. Louis, Mo.) and water ad libitum. […]
Materials: Test articles included clenbuterol (Sigma Chemical Company, St. Louis, Mo., item # C5423) and ractopamine hydrochloride—Paylean® 9 (Elanco Animal Health, Indianapolis, Ind.). Clenbuterol is available as a pure product, and ractopamine is readily available as a type A medicated article. […]
Daily Observations: Food intake was measured daily, while body weight and body temperatures were measured on days 0, 3, 7, 10, 14, 17, and 20 at approximately the same time of day (1300 hours) during the treatment period. […]

Structure (SMILES): CC(CCc1ccc(O)cc1)NCC(O)c1ccc(O)cc1 (racemic) [Ractopamine, ractopamine hydrochloride]
- Body Temp (200 ppm in diet): 37.0 °C
- Body Temp (800 ppm in diet): 36.8 °C

Structure (SMILES): CC(C)(C)NCC(O)c1cc(Cl)c(N)c(Cl)c1 (stereo not drawn) [Clenbuterol, clenbuterol]
- Body Temp (200 ppm in diet): 36.2 °C
